Results published in the supplement of paper PMC12823440, “Inhibitors supercharge kinase turnover through native proteolytic circuits” (Nature, 2025).
Some of the results follow. Hit calls seldom repeat between salt and free forms of one compound.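 Kinases, fused to nanoluciferase, were expressed in K562 cells; luminescence was measured every 4 h from 2 to 18 h as percent of control (DMSO = 100%, positive control = 0%). A time point is decreased if signal falls significantly (2 sigma). Hits were called by the authors by a rule that is not shown; the count of time points alone does not decide it.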

Sequences of proteins named here, by UniProt entry; tags and fusion partners are left off. A change or cut given only in a name is not applied to a line headed by its entry.
UniProt P21802, whole entry, looked up: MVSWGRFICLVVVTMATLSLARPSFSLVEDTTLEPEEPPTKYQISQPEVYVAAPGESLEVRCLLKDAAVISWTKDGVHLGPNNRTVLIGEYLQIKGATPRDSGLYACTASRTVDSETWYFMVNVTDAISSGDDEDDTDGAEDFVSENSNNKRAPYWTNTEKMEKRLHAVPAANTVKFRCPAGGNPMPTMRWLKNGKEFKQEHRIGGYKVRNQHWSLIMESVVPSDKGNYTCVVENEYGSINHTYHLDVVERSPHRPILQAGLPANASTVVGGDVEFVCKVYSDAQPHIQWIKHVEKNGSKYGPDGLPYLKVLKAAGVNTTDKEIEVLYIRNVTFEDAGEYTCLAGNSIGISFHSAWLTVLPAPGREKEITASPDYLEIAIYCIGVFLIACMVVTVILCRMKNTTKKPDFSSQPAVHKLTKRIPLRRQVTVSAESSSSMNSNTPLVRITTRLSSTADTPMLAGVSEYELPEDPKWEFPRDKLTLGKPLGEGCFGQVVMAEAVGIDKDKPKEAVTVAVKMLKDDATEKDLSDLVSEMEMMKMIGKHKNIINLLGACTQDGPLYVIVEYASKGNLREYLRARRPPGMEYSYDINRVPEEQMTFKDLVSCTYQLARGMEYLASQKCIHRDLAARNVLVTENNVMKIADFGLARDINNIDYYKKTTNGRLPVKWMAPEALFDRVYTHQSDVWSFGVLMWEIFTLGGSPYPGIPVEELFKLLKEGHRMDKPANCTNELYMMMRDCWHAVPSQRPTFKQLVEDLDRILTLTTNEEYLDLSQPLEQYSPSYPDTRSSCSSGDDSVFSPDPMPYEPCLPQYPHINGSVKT
UniProt P22607, whole entry, looked up: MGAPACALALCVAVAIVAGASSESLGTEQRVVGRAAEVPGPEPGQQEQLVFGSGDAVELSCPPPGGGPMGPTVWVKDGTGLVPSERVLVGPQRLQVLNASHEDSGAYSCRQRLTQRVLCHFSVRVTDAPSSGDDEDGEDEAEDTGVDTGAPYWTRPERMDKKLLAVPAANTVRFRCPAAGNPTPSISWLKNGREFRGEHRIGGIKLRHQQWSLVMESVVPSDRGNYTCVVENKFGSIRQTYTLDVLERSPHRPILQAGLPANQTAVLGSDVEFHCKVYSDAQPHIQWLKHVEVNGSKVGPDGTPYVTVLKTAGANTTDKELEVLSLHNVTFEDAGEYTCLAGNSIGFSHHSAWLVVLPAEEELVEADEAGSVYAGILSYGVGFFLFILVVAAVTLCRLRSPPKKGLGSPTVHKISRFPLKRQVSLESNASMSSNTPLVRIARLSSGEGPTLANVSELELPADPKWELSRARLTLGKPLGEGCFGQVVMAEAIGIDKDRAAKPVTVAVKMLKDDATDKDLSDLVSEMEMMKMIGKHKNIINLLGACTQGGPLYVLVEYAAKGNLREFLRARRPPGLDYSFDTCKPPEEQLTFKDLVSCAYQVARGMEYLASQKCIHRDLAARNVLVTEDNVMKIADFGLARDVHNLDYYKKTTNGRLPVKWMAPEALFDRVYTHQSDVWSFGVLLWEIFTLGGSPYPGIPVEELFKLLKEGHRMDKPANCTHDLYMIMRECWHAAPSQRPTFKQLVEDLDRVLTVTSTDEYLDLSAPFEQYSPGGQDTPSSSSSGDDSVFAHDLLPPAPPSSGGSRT
UniProt P14616: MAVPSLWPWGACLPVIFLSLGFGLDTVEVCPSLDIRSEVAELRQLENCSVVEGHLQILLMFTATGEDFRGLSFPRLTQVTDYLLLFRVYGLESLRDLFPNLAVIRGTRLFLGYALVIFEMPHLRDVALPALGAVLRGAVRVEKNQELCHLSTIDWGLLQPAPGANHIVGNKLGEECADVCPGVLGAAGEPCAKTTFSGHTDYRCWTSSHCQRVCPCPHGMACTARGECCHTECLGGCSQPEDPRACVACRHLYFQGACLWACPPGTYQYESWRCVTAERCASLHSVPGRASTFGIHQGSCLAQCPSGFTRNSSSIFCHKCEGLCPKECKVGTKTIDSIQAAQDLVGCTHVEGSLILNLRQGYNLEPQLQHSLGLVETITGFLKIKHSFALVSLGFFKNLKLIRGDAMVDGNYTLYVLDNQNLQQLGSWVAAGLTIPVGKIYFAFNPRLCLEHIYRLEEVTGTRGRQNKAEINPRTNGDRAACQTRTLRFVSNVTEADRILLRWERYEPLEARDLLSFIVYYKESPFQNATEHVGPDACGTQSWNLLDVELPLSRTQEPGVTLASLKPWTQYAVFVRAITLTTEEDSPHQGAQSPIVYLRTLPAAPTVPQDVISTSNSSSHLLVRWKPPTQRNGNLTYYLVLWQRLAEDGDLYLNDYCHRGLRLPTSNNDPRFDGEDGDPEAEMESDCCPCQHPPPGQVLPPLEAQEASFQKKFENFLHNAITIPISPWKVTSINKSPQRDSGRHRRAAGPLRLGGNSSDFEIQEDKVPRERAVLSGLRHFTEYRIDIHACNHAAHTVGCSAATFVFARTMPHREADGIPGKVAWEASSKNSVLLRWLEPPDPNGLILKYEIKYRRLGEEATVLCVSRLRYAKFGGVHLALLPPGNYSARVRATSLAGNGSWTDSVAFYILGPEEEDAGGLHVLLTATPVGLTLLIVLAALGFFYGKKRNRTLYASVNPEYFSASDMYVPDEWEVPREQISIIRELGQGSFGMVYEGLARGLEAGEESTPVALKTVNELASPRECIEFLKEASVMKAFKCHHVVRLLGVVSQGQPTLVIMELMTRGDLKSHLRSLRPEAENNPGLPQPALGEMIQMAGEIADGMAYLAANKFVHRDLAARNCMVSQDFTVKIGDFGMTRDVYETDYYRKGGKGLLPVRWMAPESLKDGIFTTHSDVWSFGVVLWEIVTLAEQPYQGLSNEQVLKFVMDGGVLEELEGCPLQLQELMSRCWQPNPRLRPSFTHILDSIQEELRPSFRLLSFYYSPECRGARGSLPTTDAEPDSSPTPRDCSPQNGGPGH
UniProt P23458: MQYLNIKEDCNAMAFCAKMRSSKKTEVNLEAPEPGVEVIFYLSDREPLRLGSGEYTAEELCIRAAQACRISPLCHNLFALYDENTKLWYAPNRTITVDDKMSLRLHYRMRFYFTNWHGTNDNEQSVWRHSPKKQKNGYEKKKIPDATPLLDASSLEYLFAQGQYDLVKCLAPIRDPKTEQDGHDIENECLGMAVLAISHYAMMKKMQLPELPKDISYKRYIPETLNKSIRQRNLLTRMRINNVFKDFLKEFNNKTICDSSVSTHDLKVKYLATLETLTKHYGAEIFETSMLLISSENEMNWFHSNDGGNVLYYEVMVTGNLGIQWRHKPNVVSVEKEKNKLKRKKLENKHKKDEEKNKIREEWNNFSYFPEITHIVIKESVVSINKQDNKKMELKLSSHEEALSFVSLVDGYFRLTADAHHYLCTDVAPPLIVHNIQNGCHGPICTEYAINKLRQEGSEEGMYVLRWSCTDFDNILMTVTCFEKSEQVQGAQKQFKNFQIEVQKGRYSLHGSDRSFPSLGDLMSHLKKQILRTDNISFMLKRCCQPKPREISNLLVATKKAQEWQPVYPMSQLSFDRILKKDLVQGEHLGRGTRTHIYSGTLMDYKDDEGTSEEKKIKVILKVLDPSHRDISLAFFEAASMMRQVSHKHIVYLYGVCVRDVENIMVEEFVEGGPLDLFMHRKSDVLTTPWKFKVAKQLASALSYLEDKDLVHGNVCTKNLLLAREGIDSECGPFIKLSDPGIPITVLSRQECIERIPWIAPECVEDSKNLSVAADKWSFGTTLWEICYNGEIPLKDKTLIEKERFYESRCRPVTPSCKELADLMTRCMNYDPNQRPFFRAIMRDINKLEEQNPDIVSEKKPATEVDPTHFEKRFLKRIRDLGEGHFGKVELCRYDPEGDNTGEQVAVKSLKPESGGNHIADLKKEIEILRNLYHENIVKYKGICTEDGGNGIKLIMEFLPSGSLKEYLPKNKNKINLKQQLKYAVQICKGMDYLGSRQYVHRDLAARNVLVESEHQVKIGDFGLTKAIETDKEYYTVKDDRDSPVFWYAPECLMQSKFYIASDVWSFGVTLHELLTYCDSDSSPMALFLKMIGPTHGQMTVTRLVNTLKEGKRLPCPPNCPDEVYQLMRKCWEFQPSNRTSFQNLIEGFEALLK
UniProt P53671: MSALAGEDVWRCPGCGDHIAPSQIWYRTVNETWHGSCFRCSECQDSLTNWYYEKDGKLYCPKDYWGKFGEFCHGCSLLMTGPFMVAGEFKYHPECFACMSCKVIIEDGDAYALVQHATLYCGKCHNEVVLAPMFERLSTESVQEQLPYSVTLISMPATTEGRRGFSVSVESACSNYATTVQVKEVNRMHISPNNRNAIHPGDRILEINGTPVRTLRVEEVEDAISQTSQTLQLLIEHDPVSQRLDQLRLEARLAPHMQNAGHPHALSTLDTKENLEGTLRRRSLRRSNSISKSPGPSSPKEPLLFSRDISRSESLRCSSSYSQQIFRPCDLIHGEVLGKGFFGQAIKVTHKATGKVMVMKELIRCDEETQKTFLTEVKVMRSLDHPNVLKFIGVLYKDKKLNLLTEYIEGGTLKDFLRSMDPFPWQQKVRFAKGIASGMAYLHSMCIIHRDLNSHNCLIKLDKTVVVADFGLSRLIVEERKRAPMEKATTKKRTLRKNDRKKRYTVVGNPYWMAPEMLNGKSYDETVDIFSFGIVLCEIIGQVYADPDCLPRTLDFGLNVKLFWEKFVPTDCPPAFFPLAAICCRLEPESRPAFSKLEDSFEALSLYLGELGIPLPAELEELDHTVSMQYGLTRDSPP
UniProt P07948: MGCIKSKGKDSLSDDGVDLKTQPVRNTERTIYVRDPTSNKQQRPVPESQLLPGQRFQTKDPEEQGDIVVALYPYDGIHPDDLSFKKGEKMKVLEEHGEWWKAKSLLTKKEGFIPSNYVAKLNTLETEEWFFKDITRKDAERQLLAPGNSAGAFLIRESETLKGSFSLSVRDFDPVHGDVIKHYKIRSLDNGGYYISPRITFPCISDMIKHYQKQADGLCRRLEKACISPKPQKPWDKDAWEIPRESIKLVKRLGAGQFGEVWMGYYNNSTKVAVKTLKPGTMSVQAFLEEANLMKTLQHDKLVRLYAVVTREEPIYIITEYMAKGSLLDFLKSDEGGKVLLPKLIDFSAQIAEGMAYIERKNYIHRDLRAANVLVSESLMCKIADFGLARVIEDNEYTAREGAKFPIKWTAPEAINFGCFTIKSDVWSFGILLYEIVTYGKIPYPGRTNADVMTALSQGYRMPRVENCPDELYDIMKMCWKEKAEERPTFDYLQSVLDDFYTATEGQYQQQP
UniProt O75460: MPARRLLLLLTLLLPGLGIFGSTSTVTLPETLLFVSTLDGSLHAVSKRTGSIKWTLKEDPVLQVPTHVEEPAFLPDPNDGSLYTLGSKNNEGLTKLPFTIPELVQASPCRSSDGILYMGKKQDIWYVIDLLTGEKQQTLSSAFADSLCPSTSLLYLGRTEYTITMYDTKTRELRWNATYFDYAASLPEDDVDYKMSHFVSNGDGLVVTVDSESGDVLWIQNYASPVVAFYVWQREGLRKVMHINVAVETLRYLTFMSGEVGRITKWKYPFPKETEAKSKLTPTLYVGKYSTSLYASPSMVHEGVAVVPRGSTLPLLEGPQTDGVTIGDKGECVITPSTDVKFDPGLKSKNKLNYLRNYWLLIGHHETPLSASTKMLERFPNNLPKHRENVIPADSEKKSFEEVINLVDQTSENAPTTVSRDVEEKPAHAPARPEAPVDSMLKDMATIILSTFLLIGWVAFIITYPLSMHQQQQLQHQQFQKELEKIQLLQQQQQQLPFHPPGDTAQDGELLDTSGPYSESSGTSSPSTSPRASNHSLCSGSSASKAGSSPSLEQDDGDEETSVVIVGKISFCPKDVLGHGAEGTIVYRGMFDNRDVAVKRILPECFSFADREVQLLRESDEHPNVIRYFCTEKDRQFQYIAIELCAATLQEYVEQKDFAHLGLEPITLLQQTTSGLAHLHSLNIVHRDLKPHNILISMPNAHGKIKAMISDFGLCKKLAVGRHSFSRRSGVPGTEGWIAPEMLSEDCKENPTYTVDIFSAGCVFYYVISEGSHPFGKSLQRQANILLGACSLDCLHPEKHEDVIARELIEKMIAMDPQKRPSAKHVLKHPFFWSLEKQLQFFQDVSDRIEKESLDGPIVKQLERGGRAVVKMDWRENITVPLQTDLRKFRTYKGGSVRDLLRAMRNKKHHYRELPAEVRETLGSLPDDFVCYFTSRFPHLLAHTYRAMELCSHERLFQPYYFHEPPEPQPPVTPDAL

How the values were obtained:
Assay in all cases: kinase-Nluc reporter destabilization hit call (1 = scored as downregulated) (binary); higher = compound decreases kinase abundance
Conditions in all cases: K562; 2-18 h
[1] = target: FGFR1 (UniProt P11362)
[2] = target: FGFR2 (UniProt P21802)
[3] = target: FGFR3 (UniProt P22607)
[4] = target: FGR (UniProt P09769)
[5] = target: FLT3 (UniProt P36888)
[6] = target: FYN (UniProt P06241)
[7] = target: GSK3A (UniProt P49840)
[8] = target: HER2 (UniProt P04626)
[9] = target: INSRR (UniProt P14616)
[10] = target: IRAK3 (UniProt Q9Y616)
[11] = target: JAK1 (UniProt P23458)
[12] = target: LCK (UniProt P06239)
[13] = target: LIMK1 (UniProt P53667)
[14] = target: LIMK2 (UniProt P53671)
[15] = target: LMTK2 (UniProt Q8IWU2)
[16] = target: LYN (UniProt P07948)
[17] = target: MAP2K1 (UniProt Q02750)
[18] = target: MAP2K2 (UniProt P36507)
[19] = target: MAP4K2 (UniProt Q12851)
[20] = target: ERN1 (UniProt O75460)

Measured: kinase-Nluc reporter destabilization hit call

CNC(=O)c1cc(Oc2ccc(NC(=O)Nc3cc(C(C)(C)C)nn3-c3ccc4ncccc4c3)c(F)c2)ccn1 [Rebastinib] (2.5 µM)
active: [13] 1
inactive: [1] 0 | [2] 0 | [3] 0 | [4] 0 | [5] 0 | [6] 0 | [7] 0 | [8] 0 | [9] 0 | [10] 0 | [11] 0 | [12] 0 | [14] 0 | [15] 0 | [16] 0 | [17] 0 | [18] 0 | [19] 0

Cc1ccc2c(Nc3ccc(Cl)cc3)nccc2c1Nc1ncccc1-c1ncnc2nc[nH]c12 [Raf inhibitor 1] (2.5 µM)
inactive: [20] 0 | [1] 0 | [2] 0 | [3] 0 | [4] 0 | [5] 0 | [6] 0 | [7] 0 | [8] 0 | [9] 0 | [10] 0 | [11] 0 | [13] 0 | [14] 0 | [15] 0 | [16] 0 | [17] 0 | [18] 0 | [19] 0

COc1cc(OC)c(F)c(COc2cnc(Nc3cnn(CCO)c3)nc2)c1F (2.5 µM)
inactive: [20] 0 | [1] 0 | [2] 0 | [4] 0 | [5] 0 | [6] 0 | [7] 0 | [8] 0 | [9] 0 | [10] 0 | [11] 0 | [12] 0 | [13] 0 | [14] 0 | [15] 0 | [16] 0 | [17] 0 | [18] 0 | [19] 0

Cc1cc(N2CCOCC2)cc2[nH]c(-c3c(NC[C@@H](O)c4cccc(Cl)c4)cc[nH]c3=O)nc12 (10 µM)
inactive: [20] 0 | [1] 0 | [2] 0 | [3] 0 | [4] 0 | [5] 0 | [6] 0 | [7] 0 | [8] 0 | [9] 0 | [10] 0 | [11] 0 | [13] 0 | [14] 0 | [15] 0 | [16] 0 | [17] 0 | [18] 0 | [19] 0

CN1CCN(C(=O)c2ccc(-c3ccc4c(C=O)c(O)ccc4c3)s2)CC1 (2.5 µM)
inactive: [1] 0 | [2] 0 | [3] 0 | [4] 0 | [5] 0 | [6] 0 | [7] 0 | [8] 0 | [9] 0 | [10] 0 | [11] 0 | [12] 0 | [13] 0 | [14] 0 | [15] 0 | [16] 0 | [17] 0 | [18] 0 | [19] 0

Cc1ccc2c(Nc3cccc(OC(F)(F)F)c3)nccc2c1Nc1ncccc1-c1ncnc2[nH]cnc12 (10 µM)
inactive: [20] 0 | [2] 0 | [3] 0 | [4] 0 | [5] 0 | [6] 0 | [7] 0 | [8] 0 | [9] 0 | [10] 0 | [11] 0 | [12] 0 | [13] 0 | [14] 0 | [15] 0 | [16] 0 | [17] 0 | [18] 0 | [19] 0

CCOc1ccn(-c2ccc(F)cc2)c(=O)c1C(=O)Nc1ccc(Oc2ccnc(N)c2Cl)c(F)c1 (10 µM)
active: [9] 1
inactive: [20] 0 | [1] 0 | [2] 0 | [3] 0 | [4] 0 | [5] 0 | [6] 0 | [7] 0 | [8] 0 | [10] 0 | [11] 0 | [13] 0 | [14] 0 | [15] 0 | [16] 0 | [17] 0 | [18] 0 | [19] 0

CC(C)(C)S(=O)(=O)c1cc2c(Nc3ccc4scnc4c3)ncnc2cc1OCCO (2.5 µM)
inactive: [1] 0 | [2] 0 | [3] 0 | [4] 0 | [5] 0 | [6] 0 | [7] 0 | [8] 0 | [9] 0 | [10] 0 | [11] 0 | [12] 0 | [13] 0 | [14] 0 | [15] 0 | [16] 0 | [17] 0 | [18] 0 | [19] 0

Cc1cc(C)c(/C=C2\C(=O)Nc3ccccc32)[nH]1 [Semaxinib] (10 µM)
inactive: [20] 0 | [1] 0 | [2] 0 | [3] 0 | [4] 0 | [5] 0 | [6] 0 | [7] 0 | [8] 0 | [9] 0 | [10] 0 | [11] 0 | [13] 0 | [14] 0 | [15] 0 | [16] 0 | [17] 0 | [18] 0 | [19] 0

O=C(/C=C/c1ccc(O)c(O)c1)c1ccc(O)cc1O [Butein] (10 µM)
inactive: [20] 0 | [2] 0 | [3] 0 | [4] 0 | [5] 0 | [6] 0 | [7] 0 | [8] 0 | [9] 0 | [10] 0 | [11] 0 | [12] 0 | [13] 0 | [14] 0 | [15] 0 | [16] 0 | [17] 0 | [18] 0 | [19] 0

CCn1cc(-c2ccnc3[nH]c(-c4cccc(CN(C)C)c4)cc23)c(-c2ccc(NC(=O)N(C)C)cc2)n1 (2.5 µM)
inactive: [20] 0 | [2] 0 | [3] 0 | [4] 0 | [5] 0 | [6] 0 | [7] 0 | [8] 0 | [9] 0 | [10] 0 | [11] 0 | [12] 0 | [13] 0 | [14] 0 | [15] 0 | [16] 0 | [17] 0 | [18] 0 | [19] 0

CNC(=O)c1ccccc1Nc1nc(Nc2ccc(N3CCOCC3)cc2OC)ncc1Cl (2.5 µM)
inactive: [20] 0 | [1] 0 | [2] 0 | [3] 0 | [4] 0 | [5] 0 | [6] 0 | [7] 0 | [8] 0 | [9] 0 | [10] 0 | [11] 0 | [13] 0 | [14] 0 | [15] 0 | [16] 0 | [17] 0 | [18] 0 | [19] 0

CC(C)(C)c1cc(NC(=O)Nc2ccc(-c3cn4c(n3)sc3cc(OCCN5CCOCC5)ccc34)cc2)no1 [Quizartinib] (10 µM)
inactive: [20] 0 | [1] 0 | [2] 0 | [3] 0 | [4] 0 | [6] 0 | [7] 0 | [8] 0 | [9] 0 | [10] 0 | [11] 0 | [12] 0 | [13] 0 | [14] 0 | [15] 0 | [16] 0 | [17] 0 | [18] 0 | [19] 0

CCN(CCO)CCCOc1ccc2c(Nc3cc(CC(=O)Nc4cccc(F)c4)[nH]n3)ncnc2c1 [Barasertib-HQPA] (10 µM)
inactive: [20] 0 | [1] 0 | [2] 0 | [3] 0 | [4] 0 | [5] 0 | [6] 0 | [7] 0 | [8] 0 | [9] 0 | [10] 0 | [11] 0 | [13] 0 | [14] 0 | [15] 0 | [16] 0 | [17] 0 | [18] 0 | [19] 0

Sorted by SMILES length (rising): three of the compounds above.
O=C(/C=C/c1ccc(O)c(O)c1)c1ccc(O)cc1O [Butein] (10 µM)
inactive: [20] 0 | [2] 0 | [3] 0 | [4] 0 | [5] 0 | [6] 0 | [7] 0 | [8] 0 | [9] 0 | [10] 0 | [11] 0 | [12] 0 | [13] 0 | [14] 0 | [15] 0 | [16] 0 | [17] 0 | [18] 0 | [19] 0

CNC(=O)c1ccccc1Nc1nc(Nc2ccc(N3CCOCC3)cc2OC)ncc1Cl (2.5 µM)
inactive: [20] 0 | [1] 0 | [2] 0 | [3] 0 | [4] 0 | [5] 0 | [6] 0 | [7] 0 | [8] 0 | [9] 0 | [10] 0 | [11] 0 | [13] 0 | [14] 0 | [15] 0 | [16] 0 | [17] 0 | [18] 0 | [19] 0

CCN(CCO)CCCOc1ccc2c(Nc3cc(CC(=O)Nc4cccc(F)c4)[nH]n3)ncnc2c1 [Barasertib-HQPA] (10 µM)
inactive: [20] 0 | [1] 0 | [2] 0 | [3] 0 | [4] 0 | [5] 0 | [6] 0 | [7] 0 | [8] 0 | [9] 0 | [10] 0 | [11] 0 | [13] 0 | [14] 0 | [15] 0 | [16] 0 | [17] 0 | [18] 0 | [19] 0

The listing continues:

COCCNCCc1cccc(Nc2ncc3c(n2)-c2ccccc2[C@H](c2ccccc2F)C3)c1 [Derazantinib] (2.5 µM)
inactive: [20] 0 | [2] 0 | [3] 0 | [4] 0 | [5] 0 | [6] 0 | [7] 0 | [8] 0 | [9] 0 | [10] 0 | [11] 0 | [12] 0 | [13] 0 | [14] 0 | [15] 0 | [16] 0 | [17] 0 | [18] 0 | [19] 0

C=CC(=O)N[C@H]1COC[C@H]1Nc1ncc2cc(-c3c(Cl)c(OC)cc(OC)c3Cl)c(=O)n(C)c2n1 (10 µM)
inactive: [20] 0 | [1] 0 | [3] 0 | [4] 0 | [5] 0 | [6] 0 | [7] 0 | [8] 0 | [9] 0 | [10] 0 | [11] 0 | [12] 0 | [13] 0 | [14] 0 | [15] 0 | [16] 0 | [17] 0 | [18] 0 | [19] 0

COc1cc(OC)cc(N(CCNC(C)C)c2ccc3ncc(-c4cnn(C)c4)nc3c2)c1 [Erdafitinib] (2.5 µM)
inactive: [20] 0 | [4] 0 | [6] 0 | [7] 0 | [8] 0 | [9] 0 | [10] 0 | [11] 0 | [12] 0 | [13] 0 | [14] 0 | [15] 0 | [16] 0 | [17] 0 | [18] 0 | [19] 0

COc1ccc2c(C(=O)Nc3ccc(NC(=O)c4nn(C5CCN(C(=O)CC(C)(C)C#N)CC5)c5ccc(F)cc45)cc3Cl)cnn2c1 [Src Inhibitor 3] (2.5 µM)
inactive: [20] 0 | [1] 0 | [2] 0 | [3] 0 | [4] 0 | [5] 0 | [6] 0 | [7] 0 | [8] 0 | [9] 0 | [10] 0 | [11] 0 | [13] 0 | [14] 0 | [15] 0 | [17] 0 | [18] 0 | [19] 0
active: [16] 1

O=c1cc(-c2ccccc2)oc2c(O)c(O)ccc12 [7,8-Dihydroxyflavone] (10 µM)
inactive: [1] 0 | [2] 0 | [3] 0 | [4] 0 | [5] 0 | [6] 0 | [7] 0 | [8] 0 | [9] 0 | [10] 0 | [11] 0 | [12] 0 | [13] 0 | [14] 0 | [15] 0 | [16] 0 | [17] 0 | [18] 0 | [19] 0
